Test results: patent US20260176249A1, “PROTEIN KINASE INHIBITOR, PREPARATION METHOD THEREFOR, AND APPLICATION THEREOF” (SHANDONG LUYE PHARMACEUTICAL CO., LTD., priority 2021, published 2026)
Some results were stated once for a whole list of compounds, not compound by compound.

The chains behind the UniProt entries cited, without tags or fusion partners.
UniProt P53350, whole entry: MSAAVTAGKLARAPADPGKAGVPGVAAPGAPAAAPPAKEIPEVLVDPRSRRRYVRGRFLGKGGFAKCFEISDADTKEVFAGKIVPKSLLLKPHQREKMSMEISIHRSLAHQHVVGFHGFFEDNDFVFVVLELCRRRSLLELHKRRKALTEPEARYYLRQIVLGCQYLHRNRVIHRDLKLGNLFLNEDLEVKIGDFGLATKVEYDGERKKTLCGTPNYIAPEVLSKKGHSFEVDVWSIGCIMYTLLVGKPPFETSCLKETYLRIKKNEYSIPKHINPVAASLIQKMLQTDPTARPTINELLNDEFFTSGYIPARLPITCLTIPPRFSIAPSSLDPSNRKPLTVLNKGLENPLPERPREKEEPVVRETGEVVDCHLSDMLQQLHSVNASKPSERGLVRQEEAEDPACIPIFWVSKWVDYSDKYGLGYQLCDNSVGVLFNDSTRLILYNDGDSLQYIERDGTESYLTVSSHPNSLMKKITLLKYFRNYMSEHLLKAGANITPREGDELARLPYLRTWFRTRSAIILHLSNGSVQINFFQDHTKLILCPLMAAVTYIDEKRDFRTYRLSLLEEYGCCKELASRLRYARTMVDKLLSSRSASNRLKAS

target: T1, PLK1 kinase (Homo sapiens, UniProt P53350); experiment: Inhibitory activity on PLK1 kinase; assay type: biochemical
T1 construct: purchased Carnabio (Carna Biosciences) 05-157
Description: Detection solution PerkinElmer #TRF0218-M
Detection instrument PerkinElemer EnVision
a. Using the Echo machine, the compounds to be tested were diluted by 1:3 on a 384-well plate, and the highest concentration was 1 μM, with a total of 10 concentration points, and each concentration was tested in duplicate wells.
b. 5 μL/well of PLK1 kinase and peptide substrate mixture were added to the assay plate (containing controls).
d. The reaction was initiated by adding 5 μL/well of ATP solution;
e. The assay plate was centrifuged at 1000 rpm for about 15 seconds, a film was used to seal the assay plate which was incubated at 23° C. for a period of time;
f. A detection solution was added to all wells of the assay plate;
g. The assay plate was centrifuged at 1000 rpm for approximately 15 seconds, a film was used to seal the assay plate which was incubated at 23° C. for 60 min.
h. The assay plate was read on EnVision. The test results were analyzed using XLFIT5 software.

SMILES	kinase activity compared with the control drug onvansertib
CN1CCN(c2ccc(OC(F)(F)F)c(Nc3ncc4ccc5c(C(N)=O)cn(CCO)c5c4n3)c2)CC1 [Compound 21]	higher than that of the control drug
CN1CCN(c2ccc(OC(F)(F)F)c(Nc3ncc4ccc5c(C(N)=O)nn(C6CC6)c5c4n3)c2)CC1 [Compound 27]	higher than that of the control drug
CN1CCN(c2ccc(OC(F)(F)F)c(Nc3ncc4ccc5c(C(N)=O)nn(CC(F)(F)F)c5c4n3)c2)CC1 [Compound 28]	higher than that of the control drug
CN1CCN(c2ccc(OC(F)(F)F)c(Nc3ncc4ccc5c(C(=O)NOCCO)nn(CCF)c5c4n3)c2)CC1 [Compound 30]	higher than that of the control drug
CN1CCN(c2ccc(OC(F)(F)F)c(Nc3ncc4ccc5c(C(=O)NO)nn(CC(F)(F)F)c5c4n3)c2)CC1 [Compound 32]	higher than that of the control drug
